The values below come from the supplement of paper PMC7024190.

This is one part of the list. Single values are uncertain here, since repeats match poorly.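 A first-round screen of about ten thousand compounds sought those raising reporter output, using human embryonic kidney cells briefly transfected with a plasmid carrying a Renilla luciferase gene driven by the HSV-TK promoter.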

The subject of this assay is HEK 293FT. As to the kind of experiment: log relative Renilla luciferase luminescence (reporter expression vs reference, reference not stated) (log (base not stated)); higher = higher recombinant reporter expression. Conditions: 10 µM; time after transfection 48 h. How it is done: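 HEK 293FT cells transiently transfected with pRL-TK (Renilla luciferase) were treated with compounds at 10 uM and luminescence was read about 42 h later. Values are log relative Renilla luminescence (log base and reference not stated). Single-pass screen; 2080 natural products library.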
As for `C=C1C(=O)O[C@H]2C[C@@H](C)[C@@H]3CC[C@H](O)[C@@]3(C)[C@@H](O)[C@H]12` [Carabrolactone B], the log turned out to be 0.108. In the case of `C[C@@]12CCC[C@@](C)(C(=O)O)[C@H]1CC[C@@]13C[C@@H](CC[C@H]12)[C@@](O)(CO)C3` [ent-16beta,17-Dihydroxy-19-kauranoic acid] it was 0.0279; in that of `CC1(C)CC[C@]2(C(=O)O)CC[C@]3(C)C(=CC[C@@H]4[C@@]5(C)C[C@@H](O)[C@@H](O)[C@](C)(CO)[C@@H]5CC[C@]43C)[C@@H]2C1` [2,3,24-Trihydroxyolean-12-en-28-oic acid], -0.248; in that of `C=C1C(=O)O[C@@H]2/C=C(\C)CC/C=C(\C)CC[C@@H]12` [Costunolide], 0.041. In the case of `C=C1[C@@H](OC(=O)/C=C/c2ccccc2)C[C@H](OC(C)=O)[C@]2(C)[C@@H]1C[C@@H]1CC(=O)C(C)=C([C@@H](OC(C)=O)[C@@H]2OC(C)=O)C1(C)C` [2-Deacetoxytaxinine B] it was -0.0264; in that of `C=C(C)C(OC(C)=O)C(OC(C)=O)c1c(OC)ccc2ccc(=O)oc12` (stereo not given) [Murrangatin diacetate], -0.188; in that of `O=C1c2c(O)cc(O)cc2O[C@H](c2cc(O)c(O)c(O)c2)[C@H]1O` [Ampelopsin], -0.0332.

Consider `CC(C)(O)[C@@H]1Cc2c(cc3oc(CO)cc(=O)c3c2O)O1` [Angelicain], for which the log stood at 0.0711. In the case of `COc1cc2c(c(OC)c1OC)-c1c(cc3c(c1O)OCO3)C[C@H](C)[C@@H](C)C2` [Gomisin M2] it was -0.334; in that of `O=C(/C=C/c1ccc(O)c(O)c1)O[C@H](Cc1ccc(O)c(O)c1)C(=O)O` [Rosmarinic acid], -0.16; in that of `O=C1OCC=C1[C@H]1CCc2ccc3c(c2C1)[C@H](c1ccoc1)OC3=O` [Tilifodiolide], -0.127. Then `CCOC(=O)c1cc(O)c(O)c(O)c1` [Ethyl gallate], with 0.0016; and `COc1ccc(-c2cc(=O)c3c(OC(C)=O)c(C)c(OC)c(C)c3o2)cc1` [Eucalyptin acetate], with -0.309. In the case of `C[C@H](CC[C@@H]1OC(C)(C)OC1(C)C)[C@H]1CC[C@@]2(C)[C@@H]3CC[C@H]4C(C)(C)[C@@H](O)CC[C@@]45C[C@@]35CC[C@]12C` [(24S)-Cycloartane-3,24,25-triol 24,25-acetonide] it was -0.462; in that of `C=C(CC[C@@H](C)[C@H]1CC[C@@]2(C)[C@@H]3CC[C@H]4[C@](C)(C(=O)O)[C@@H](O)C[C@H](O)[C@@]45C[C@@]35CC[C@]12C)C(C)C` [23-deoxojessic acid], 0.0737. Consider `COc1ccc(-c2oc3c(OC)c(O)cc(O)c3c(=O)c2O)cc1` [Prudomestin], for which the log was -0.426. As to `O=C(O)c1ccc(O)c(O)c1` [3,4-Dihydroxybenzoic acid], the log worked out at 0.119. Then `CC(=O)OC1CCC2(C)C(CCC3(C)C2CC=C2C4C(C)C(C)CCC4(C(=O)O)CCC23C)C1(C)C` (stereo not given) [Acetylursolic acid], with 0.0581; and `CC1=C2C[C@@H](C(C)(C)O)CC[C@@]2(C)CCC1` [epi-Eudesmol], with 0.194. As for `COc1cc2oc(=O)cc(OC)c2c(C)c1OC` [4,6,7-Trimethoxy-5-methylcoumarin], the log is -0.11. Then `COc1ccc(O[C@@H]2O[C@H](CO)[C@@H](O)[C@H](O)[C@H]2O)cc1OC` [3,4-Dimethoxyphenyl beta-D-glucoside], with -0.0867; and `C=C1CCC2OC2(C)CC[C@@H]2[C@@H]1OC(=O)C2(C)C` (stereo not given in full) [Epoxyparvinolide], with -0.121.

With `COc1c(O)ccc(O)c1-c1cc(=O)c2c(O)cc(O)c(OC)c2o1` [Viscidulin III], the log is -0.0512. Regarding `C[C@H]1[C@H](C)CC[C@]2(C(=O)O)CC[C@]3(C)C(=CC[C@@H]4[C@@]5(C)C[C@@H](O)[C@H](O)C(C)(C)[C@@H]5CC[C@]43C)[C@H]12` [Corosolic acid], the log is -0.179. Then `COc1cnc(C2CCCc3c4[nH]c5c(O)cccc5c4c(OC)c[n+]32)c2[nH]c3c(O)cccc3c12` (stereo not given) [Picrasidine T], with 0.085; and `CC(=O)O[C@H]1C[C@H]2OC[C@@]2(OC(C)=O)[C@H]2[C@H](OC(C)=O)[C@]3(C(C)(C)O)C[C@H](O)C(C)=C3[C@@H](OC(=O)c3ccccc3)[C@H](OC(C)=O)[C@]12C` [Taxayunnansin A], with -0.0163. In the case of `C=C[C@H](O)C#CC#C/C=C/CO` [(S,E)-Deca-2,9-dien-4,6-diyn-1,8-diol] it was -0.115; in that of `COC1=CC(C)C2CC3OC(O)CC4C(C)C5OCOC5C(C2(C)C1=O)C34C` (stereo not given) [Picrasinol B], 0.0997; in that of `COc1cc([C@@H]2Oc3c(OC)cc(/C=C/C=O)cc3[C@H]2CO)ccc1O` [Balanophonin], -0.0669. In the case of `CC[C@H](CC[C@@H](C)[C@H]1CC[C@H]2C3=C(CC[C@]12C)[C@@]1(C)CCC(O)CC1=CC3)C(C)C` (stereo not given in full) [Stigmasta-5,8-dien-3-ol] it was -0.331; in that of `CC(=O)OC1CC(C)(OC(C)=O)CC2C1(OC(C)=O)CC1(C)C(OC(C)=O)C3C(OC(=O)c4ccccc4)C(C)CC3(O)C(OC(C)=O)C21C` (stereo not given) [5,8,9,10,14-Pentaacetoxy-3-benzoyloxy-15-hydroxypepluane], -0.166. As for `CC1(C)CC[C@]2(C(=O)O)CC[C@]3(C)C(=CC[C@@H]4[C@@]5(C)CC[C@@H](O)[C@](C)(CO)[C@@H]5CC[C@]43C)[C@@H]2C1` [Scutellaric acid], the log was -0.0378. Then `Oc1cc(O)cc([C@@H]2[C@H](c3ccc(O)cc3O)c3c(O)cc(O)cc3C[C@@H]2c2ccc(O)cc2O)c1` [Alboctalol], with -0.123; and `C=C(CC[C@@H](C)[C@H]1[C@@H](O)C[C@H]2[C@@H]3[C@H](O)C=C4C[C@@H](O)CC[C@]4(C)[C@H]3CC[C@]12C)C(C)C` [Ergosta-5,24(28)-diene-3,7,16-triol], with -0.0563; and `C[C@H]1[C@H](C)CC[C@]2(C(=O)O)CC[C@]3(C)C(=CC[C@@H]4[C@@]5(C)C[C@@H](O)[C@@H](O)[C@@](C)(CO)[C@@H]5CC[C@]43C)[C@H]12` [Esculentic acid], with -0.238.

Take `COc1cc(C[C@@]2(O)CO[C@H](c3ccc(O)c(OC)c3)[C@@]2(O)CO)ccc1O` [Massoniresinol]: the log is -0.0962. As for `CCCCCCCCC/C=C/CCC[C@@H](O)[C@@H](O)[C@H](CO)NC(=O)[C@H](O)CCCCCCCCCCCCCCCCCCCCCC` [Gynuramide II], the log is -0.0825. Then `C=C1CC[C@H]2C(C)(C)[C@@H](OC(C)=O)CC[C@]2(C)[C@H]1CC/C(C)=C/C(=O)O` [3-Acetoxy-8(17),13E-labdadien-15-oic acid], with -0.309; and `COc1ccc(C[C@H]2C(=O)OC[C@@H]2[C@@H](O)c2ccc(OC)c(OC)c2)cc1OC` [Tupichilignan A], with 0.142; and `CC[C@H](CC[C@@H](C)[C@H]1CC[C@H]2[C@@H]3C[C@H](O)C4=CC(=O)CC[C@]4(C)[C@H]3CC[C@]12C)C(C)C` [6-Hydroxystigmast-4-en-3-one], with -0.0544.
